According to patent publication US4769373A, “Anti-arrhythmic azabicyclic compounds” (Richter Gedeon Vegyeszeti Gyar Rt., priority 1983, dated 1988):

Columns and labels:
[1] = system: disorders of the cardiac rhythm provoked by aconitine
Procedure: The anti-arrhytmic effect was tested in Wistar rats. The animals first received aconitine intravenously to provoke disorders of the cardiac rhythm [M. Fekete and J. Borsy: Med. Exp. Basel, 10, 93 (1964)] and then i.v. the test (or reference) compound. […] The dose required to restore the rhythm in 50% (ED50 mg/kg) was determined.

in vivo = details: mouse, iv

## CCN(CC)CC(=O)Nc1c(C)cccc1C [Lidocaine, reference compound]
[1]; LD50 mice i.v. / ED50 rats i.v.
  LD50/ED50 index: 3.26
[1]; relative to Lidocaine = 1
  index ratio (index of the test compound : index of Lidocaine): 1
In vivo
  LD50: 25.1 mg/kg
